Results deposited as PubChem BioAssay AID1259424 (University of Nebraska Medical Center, 2018).
The deposit covers about 14,000 reagents; below is a random part of them. 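Higher correlation or smaller distance means closer resemblance to KSR1 loss; control wells, including KSR1 knockdowns, recur on many plates.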 Further read-outs or replicates are left out here. Reagent sequences are not shown. Not stated in the record: the time to read-out.

Aim: 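Seek colon cancer survival genes behaving like KSR1, using a six-gene signature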 (primary screen)
Cells: human HCT116 colon cancer cells
Reagents: siRNA pool against human genes, 50 nM
Measurement: 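Six signature mRNAs by branched-DNA multiplex assay, scaled to two housekeeping genes and non-targeting median, log2; matched to mean KSR1 knockdown profile by Pearson correlation and euclidean distance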
Scale: mean correlation with KSR1 profile: higher = expression change more like KSR1 knockdown; mean distance from KSR1 profile: higher = expression change less like KSR1 knockdown

H2BC11 (H2B clustered histone 11)
- mean correlation with KSR1 profile: -0.685
- mean distance from KSR1 profile: 1.36

CLDN7 (claudin 7)
- mean correlation with KSR1 profile: -0.491
- mean distance from KSR1 profile: 2.1

PPFIBP1 (PPFIB scaffold protein 1)
- mean correlation with KSR1 profile: 0.37
- mean distance from KSR1 profile: 2.4

TJP3 (tight junction protein 3)
- mean correlation with KSR1 profile: 0.413
- mean distance from KSR1 profile: 1.08

STIM2 (stromal interaction molecule 2)
- mean correlation with KSR1 profile: -0.451
- mean distance from KSR1 profile: 1.65

RNF121 (ring finger protein 121)
- mean correlation with KSR1 profile: -0.891
- mean distance from KSR1 profile: 2.62

RBM38 (RNA binding motif protein 38)
- mean correlation with KSR1 profile: 0.427
- mean distance from KSR1 profile: 1.97

DPH5 (diphthamide biosynthesis 5)
- mean correlation with KSR1 profile: -0.486
- mean distance from KSR1 profile: 2.28

XKR6 (XK related 6)
- mean correlation with KSR1 profile: 0.678
- mean distance from KSR1 profile: 1.43

KCNQ1DN (KCNQ1 downstream neighbor)
- mean correlation with KSR1 profile: 0.216
- mean distance from KSR1 profile: 3.57

ZNF275 (zinc finger protein 275)
- mean correlation with KSR1 profile: -0.582
- mean distance from KSR1 profile: 1.58

RALGPS1 (Ral GEF with PH domain and SH3 binding motif 1)
- mean correlation with KSR1 profile: -0.545
- mean distance from KSR1 profile: 1.79

MEP1B (meprin A subunit beta)
- mean correlation with KSR1 profile: -0.385
- mean distance from KSR1 profile: 4.74

BRCA1 (BRCA1 DNA repair associated)
- mean correlation with KSR1 profile: -0.182
- mean distance from KSR1 profile: 1.6

COL4A4 (collagen type IV alpha 4 chain)
- mean correlation with KSR1 profile: 0.242
- mean distance from KSR1 profile: 1.36

Targets listed so far whose gene name starts with C or c:
CLDN7 (claudin 7)
- mean correlation with KSR1 profile: -0.491
- mean distance from KSR1 profile: 2.1

COL4A4 (collagen type IV alpha 4 chain)
- mean correlation with KSR1 profile: 0.242
- mean distance from KSR1 profile: 1.36

Further reagents follow.
PTPRCAP
- mean correlation with KSR1 profile: 0.253
- mean distance from KSR1 profile: 1.41

SCAF4 (SR-related CTD associated factor 4)
- mean correlation with KSR1 profile: -0.346
- mean distance from KSR1 profile: 1.98

FUT6 (fucosyltransferase 6)
- mean correlation with KSR1 profile: -0.475
- mean distance from KSR1 profile: 3.62

ABCB5 (ATP binding cassette subfamily B member 5)
- mean correlation with KSR1 profile: 0.166
- mean distance from KSR1 profile: 1.28

DGCR8 (DGCR8 microprocessor complex subunit)
- mean correlation with KSR1 profile: -0.499
- mean distance from KSR1 profile: 2.77

NPAP1 (nuclear pore associated protein 1)
- mean correlation with KSR1 profile: -0.869
- mean distance from KSR1 profile: 2.16

AEN (apoptosis enhancing nuclease)
- mean correlation with KSR1 profile: -0.632
- mean distance from KSR1 profile: 2.1

RHOT1 (ras homolog family member T1)
- mean correlation with KSR1 profile: -0.304
- mean distance from KSR1 profile: 2.62

DNAJC2 (DnaJ heat shock protein family (Hsp40) member C2)
- mean correlation with KSR1 profile: -0.143
- mean distance from KSR1 profile: 1.4

PAXIP1 (PAX interacting protein 1)
- mean correlation with KSR1 profile: -0.241
- mean distance from KSR1 profile: 2.51

IDH1 (isocitrate dehydrogenase (NADP(+)) 1)
- mean correlation with KSR1 profile: 0.201
- mean distance from KSR1 profile: 1.65

AKR1A1 (aldo-keto reductase family 1 member A1)
- mean correlation with KSR1 profile: -0.199
- mean distance from KSR1 profile: 2.33

TASP1 (taspase 1)
- mean correlation with KSR1 profile: -0.507
- mean distance from KSR1 profile: 2.27

STX12 (syntaxin 12)
- mean correlation with KSR1 profile: -0.394
- mean distance from KSR1 profile: 1.4

ARX (aristaless related homeobox)
- mean correlation with KSR1 profile: 0.567
- mean distance from KSR1 profile: 1.63

ZDHHC8 (zDHHC palmitoyltransferase 8)
- mean correlation with KSR1 profile: 0.796
- mean distance from KSR1 profile: 2.32

PUF60 (poly(U) binding splicing factor 60)
- mean correlation with KSR1 profile: 0.215
- mean distance from KSR1 profile: 1.97

FAM50A (family with sequence similarity 50 member A)
- mean correlation with KSR1 profile: -0.287
- mean distance from KSR1 profile: 1.91

BLVRB (biliverdin reductase B)
- mean correlation with KSR1 profile: -0.475
- mean distance from KSR1 profile: 3.25

HLA-DPB2
- mean correlation with KSR1 profile: -0.0488
- mean distance from KSR1 profile: 2.61

TNP2 (transition protein 2)
- mean correlation with KSR1 profile: -0.503
- mean distance from KSR1 profile: 1.99
